Literature values, collected in patent publication US7507813B2, “Amorphous cefuroxime axetil and preparation process therefore” (Nanomaterials Technology Pte Ltd., priority 2004, dated 2009).
At least one read-out could not be matched to a standard name with certainty.

Settings: oral administration; versus crystalline form; cited from earlier work

CON=C(C(=O)N[C@@H]1C(=O)N2C(C(=O)OC(C)OC(C)=O)=C(COC(N)=O)CS[C@H]12)c1ccco1 (stereo partly drawn) [(6R,7R)-3-carbamoyloxymethyl-7-[(Z)-2-(fur-2-yl)-2-methoxyimino-acetylamido]-ceph-3-em-4-carboxylic acid 1-acetoxyethyl ester]
bioavailability compared with the crystalline form: higher bioavailability
